Results reported in patent US7083802B2, “Treatment of ocular disease” (Advanced Ocular Systems Limited, priority 2003, dated 2006).
Some of these results come from one statement about several compounds together. At least one compound was matched to its structure with a doubt left.

Experiment: Intraocular administration, ocular toxicity
Type: in vivo
Details: no experiment described

## CC[C@@H]1/C=C(\C)C[C@H](C)C[C@H](OC)[C@H]2O[C@@](O)(C(=O)C(=O)N3CCCC[C@H]3C(=O)O[C@H](/C(C)=C/[C@@H]3CC[C@@H](O)[C@H](OC)C3)[C@H](C)[C@@H](O)CC1=O)[C@H](C)C[C@@H]2OC [ascomycin]
  Intraocular dose that does not result in substantial toxicity: up to 200 μg
